In article PMC11813584, “An odorant-binding protein functions in fire ant social immunity interfacing with innate immunity” (Open Biology, 2025):

Test system: S. invicta workers
Assay: GC-MS analysis of cuticular chemicals of B. bassiana-killed versus freeze-killed workers
Parameters: species or system Solenopsis invicta
Details: for change on ant cuticle after infection: B. bassiana-killed versus freeze-killed workers; for concentration in B. bassiana-killed ants compared to freeze-killed ants (in words): fatty acids quantified by GC-MS

| Structure (SMILES) | change on ant cuticle after infection | concentration in B. bassiana-killed ants compared to freeze-killed ants (in words) |
| --- | --- | --- |
| CCCCCCCCCCCCCCCCCCCCCC(=O)O [behenic acid] | increases | significantly higher in the B. bassiana-killed ants |
| CCCCCCCCCCC/C=C/CCCCC(=O)O [trans-6-octadecenoic acid] | – | significantly higher in the B. bassiana-killed ants |
| CC1CCOC1=O (stereo not shown) [3-methyltetrahydro-2-furanone] | increases | – |
